Results on 2 molecules are retold here after article PMC2730569.

No constants are given. Whether binding was seen depends on the method and setting. Binding seen in cells or lysates may run through a third protein. Binding calls can cover weak binding; strength is not graded here. Where a sequence is shown, tags or fusion partners need not be part of it.

For test [1], the target named is Wde-3-GFP (fragment of Wde containing the coiled-coil region) (Drosophila). Put plainly: co-IP; S2 cells cotransfected with Wde-3-GFP and Egg deletion constructs fused to HA; IP with anti GFP antibody, anti beta-Galactosidase as control; lysate in TNT buffer.
The target in test [2] is GFP-Wde-1 (full length Windei fused to GFP) (Drosophila). Put plainly: co-IP; S2 cells cotransfected with GFP-Wde-1 and POF-HA; IP with anti GFP according to the text, with anti Wde antiserum (preimmune serum as control) according to the legend; blots with anti HA and anti GFP; lysate in TNT buffer.

B1: Egg fragment aa 366-521 fused to HA (domain or fragment, UniProt Q32KD2 366-521)
chain: EDELDDAIKNVLNKVDFTAQLSWSKTILQAKADHLERQFALADVELEKVQTTADKMHCALYNSCPVAHKHLPTLDIEPSDYVHEVPPPGEIVRPPIQLGETYYAVKNKAIASWVSIKVIEFTESTAINGNTMKSYKIRYLNTPYQMIKTVTAKHIA
As to B1, in test [1], the binding entry was “binds”.

B2: POF-HA (full length Painting of fourth fused to HA) (protein, UniProt Q9W123 1-495)
chain: MDSKRAALESGDGPDAKRLDTTDDQDKEASGGDGSQVMLAKHVAPYTGHGCTPPMESYLFEPTPAGSQLLPWKTSVDLDNDAELEKPTSDKKPDTAKLSRRELAKMRREHTLRALALERELTNKPGQTPASEVLLVRFPDPEITAPMLAGLSKDIRDVVLPISVAPRYCLVHLKAGADVEATICDINRVRFGTGHLRAELKPFSDEEQAEFIDPCSLYVGNIPFNMTTSAIKAYFANAMRVDIGVLKREKRARYAFVRYASPDQTMEAFKELVDSPLNSRTLTVRYRRLRKRAGMPMVQCATSFQALQSPNGDDDNTDCKVISPPPLESIIISDSDNCSDSSGNGKEDGKRKKKINEQEREIEKLKRQMAEYGAIIKSLQFRQNSLEDTFIPDLTPKVEPSVNPTGCLLGSNAVHLMRDIKKECDYLGIPDPVPATKPTTQAQDDSQKKAKRSCFGRLFTGPFRRGTSAMKTADEYEKDDRLEELYAQLERDPDP
Consider B2, for which the binding result in test [2] was “binds”.
